Among the data in publication PMC12263440 are binding values, retold here.

Chains of the proteins cited; added tags and fusions are not shown. Lines headed by an entry give the natural chain unless they say otherwise; changes in a name come on top.
UniProt Q15910: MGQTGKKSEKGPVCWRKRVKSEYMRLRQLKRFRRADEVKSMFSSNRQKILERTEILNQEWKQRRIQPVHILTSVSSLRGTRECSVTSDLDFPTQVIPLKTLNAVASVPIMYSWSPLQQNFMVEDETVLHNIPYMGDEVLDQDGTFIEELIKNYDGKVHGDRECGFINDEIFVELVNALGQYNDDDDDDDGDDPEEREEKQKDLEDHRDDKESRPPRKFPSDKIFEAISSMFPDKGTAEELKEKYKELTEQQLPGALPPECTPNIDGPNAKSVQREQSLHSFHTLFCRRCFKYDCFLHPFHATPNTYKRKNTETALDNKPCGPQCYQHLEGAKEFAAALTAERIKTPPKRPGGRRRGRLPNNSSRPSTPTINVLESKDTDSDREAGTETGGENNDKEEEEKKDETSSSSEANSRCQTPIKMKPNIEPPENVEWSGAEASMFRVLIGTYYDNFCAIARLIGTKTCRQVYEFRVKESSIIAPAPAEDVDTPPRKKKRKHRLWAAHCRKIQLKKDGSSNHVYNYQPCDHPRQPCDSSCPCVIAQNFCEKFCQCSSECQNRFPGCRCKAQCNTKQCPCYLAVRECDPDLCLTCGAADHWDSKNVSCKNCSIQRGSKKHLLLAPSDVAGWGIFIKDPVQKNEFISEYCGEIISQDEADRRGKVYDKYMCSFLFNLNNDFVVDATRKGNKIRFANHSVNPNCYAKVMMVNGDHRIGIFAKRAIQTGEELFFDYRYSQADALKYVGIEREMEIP
UniProt Q15022: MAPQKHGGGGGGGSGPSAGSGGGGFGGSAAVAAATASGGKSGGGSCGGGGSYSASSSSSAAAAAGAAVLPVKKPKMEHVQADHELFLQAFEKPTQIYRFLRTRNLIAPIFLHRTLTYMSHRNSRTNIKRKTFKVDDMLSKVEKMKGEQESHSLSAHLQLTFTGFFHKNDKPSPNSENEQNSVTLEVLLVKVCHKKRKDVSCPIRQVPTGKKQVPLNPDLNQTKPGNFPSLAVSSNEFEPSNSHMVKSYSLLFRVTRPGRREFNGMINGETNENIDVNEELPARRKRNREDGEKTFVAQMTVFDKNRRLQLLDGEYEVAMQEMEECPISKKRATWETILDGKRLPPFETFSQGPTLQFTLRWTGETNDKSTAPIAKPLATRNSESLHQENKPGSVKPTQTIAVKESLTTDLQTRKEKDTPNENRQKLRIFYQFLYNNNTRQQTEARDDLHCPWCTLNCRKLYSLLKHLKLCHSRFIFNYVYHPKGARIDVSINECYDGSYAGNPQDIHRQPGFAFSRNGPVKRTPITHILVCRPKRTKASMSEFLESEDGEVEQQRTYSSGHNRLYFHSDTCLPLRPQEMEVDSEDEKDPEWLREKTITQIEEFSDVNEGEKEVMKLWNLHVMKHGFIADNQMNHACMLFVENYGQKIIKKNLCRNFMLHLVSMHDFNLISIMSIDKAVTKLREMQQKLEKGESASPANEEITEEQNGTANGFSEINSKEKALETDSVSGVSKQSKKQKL
UniProt O75530: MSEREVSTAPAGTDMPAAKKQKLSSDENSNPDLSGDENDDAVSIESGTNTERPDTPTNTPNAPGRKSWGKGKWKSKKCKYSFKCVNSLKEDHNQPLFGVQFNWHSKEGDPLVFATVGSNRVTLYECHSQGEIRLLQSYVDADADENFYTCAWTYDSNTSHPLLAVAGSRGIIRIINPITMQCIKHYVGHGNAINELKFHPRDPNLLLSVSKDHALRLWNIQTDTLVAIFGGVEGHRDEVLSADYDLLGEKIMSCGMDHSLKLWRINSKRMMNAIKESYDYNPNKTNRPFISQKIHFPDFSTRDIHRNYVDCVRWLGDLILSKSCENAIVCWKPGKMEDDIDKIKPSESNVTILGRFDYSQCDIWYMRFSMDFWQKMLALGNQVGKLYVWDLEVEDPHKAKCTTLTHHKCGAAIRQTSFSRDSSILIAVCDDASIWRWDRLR
UniProt Q09028: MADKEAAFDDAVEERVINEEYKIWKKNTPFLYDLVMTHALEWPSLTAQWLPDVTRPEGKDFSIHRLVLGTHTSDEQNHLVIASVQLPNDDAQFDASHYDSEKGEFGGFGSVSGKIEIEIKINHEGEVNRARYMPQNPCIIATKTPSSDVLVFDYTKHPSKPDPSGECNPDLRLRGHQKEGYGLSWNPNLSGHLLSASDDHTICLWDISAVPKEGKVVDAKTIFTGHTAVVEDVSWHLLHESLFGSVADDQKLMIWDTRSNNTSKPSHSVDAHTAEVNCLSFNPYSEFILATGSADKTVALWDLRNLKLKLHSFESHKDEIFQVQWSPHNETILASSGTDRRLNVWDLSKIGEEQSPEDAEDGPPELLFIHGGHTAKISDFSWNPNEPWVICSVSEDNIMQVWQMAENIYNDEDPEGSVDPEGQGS

These are yes or no findings as the source states them, for the method shown. Some binding calls cover weakened binding; strength is not graded here.

Test [1] has as its target His6-tagged PRC2 complex (EZH2, SUZ12, EED, RBBP4) (human) (UniProt Q15910+Q15022+O75530+Q09028). The experiment in a line: pull-down; DEK (1 µM) mixed with His–PRC2 complex (0.5 µM), Ni-NTA resin, 150 mM NaCl, 0.1% NP-40, 20 mM imidazole, 4 °C, 1 h; SDS–PAGE with Oriole stain; both purified.
For test [2], the target named is T1, recombinant human DEK protein (wild type) (human), P35659.
T1 chain: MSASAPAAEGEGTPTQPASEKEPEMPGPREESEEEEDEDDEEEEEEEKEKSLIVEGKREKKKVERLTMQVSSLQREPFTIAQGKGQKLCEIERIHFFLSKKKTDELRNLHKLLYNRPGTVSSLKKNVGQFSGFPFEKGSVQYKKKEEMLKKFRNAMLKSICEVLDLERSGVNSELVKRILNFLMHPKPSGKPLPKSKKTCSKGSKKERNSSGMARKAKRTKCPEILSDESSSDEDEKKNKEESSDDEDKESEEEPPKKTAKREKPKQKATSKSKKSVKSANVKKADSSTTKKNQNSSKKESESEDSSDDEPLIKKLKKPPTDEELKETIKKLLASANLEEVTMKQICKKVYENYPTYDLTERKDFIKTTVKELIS
The experiment in a line: cryo-EM structure; 193-bp 601L nucleosome (1.5 µM) and DEK (3.0 µM), 20 mM Tris-HCl pH 7.5, 122 mM NaCl, 37 °C, 30 min; gradient fixation with paraformaldehyde; both purified. To be noted: remark: other sources report otherwise.

Turning to “recombinant human DEK protein (wild type) (from UniProt P35659 1-375)”, in test [1], the binding result is “no binding (tested: DEK 1 µM, His–PRC2 complex 0.5 µM)”.

B1: recombinant human DEK protein (wild type), P35659 1-375 (protein)
chain: T1 chain
As for B1, the binding entry in test [2] was “binds”.
